Source: patent US20150050274A1, “METHODS AND BIOMARKERS FOR DETECTION AND TREATMENT OF MATURE T-CELL LEUKEMIA” (The Regents of the University of Michigan, priority 2013, published 2015)
“Also recorded” adds a separate entry of the source. For at least one compound, name, drawing or mass did not settle the structure.

Tests used:
STAT5 = details: previously shown, Nelson et al. 2011 Blood 117; cited from earlier work
PARP = test: Western blot of PARP cleavage (apoptotic activation) in primary T-PLL cells treated with Pimozide; type: cell-based, human; details: Pimozide 10-20 μM, 4-12 h, FIG. 8h
primary T-PLL cells [1] = test: Proliferation of cultured primary T-PLL cells treated with Pimozide; type: cell-based, human; details: cultured primary T-PLL cells with IL2; Pimozide 10-20 μM; FIG. 8f; n=3, p<0.005
pSTAT5B = test: Western blot of pSTAT5 levels in primary T-PLL cells treated with Pimozide; type: cell-based, human; details: primary T-PLL cells (T-PLL 25 shown), Pimozide 10-20 μM, 4-12 h, FIG. 8h
primary T-PLL cells [2] = test: Trypan blue exclusion cell viability of primary T-PLL cells treated with Pimozide; type: cell-based, human; details: cultured primary T-PLL cells, Pimozide 10-20 μM, FIG. 8g, n=3, p<0.005

## O=c1[nH]c2ccccc2n1C1CCN(CCCC(c2ccc(F)cc2)c2ccc(F)cc2)CC1 [Pimozide]
STAT5
  STAT5 levels in myeloid leukemia: reduce STAT5 levels in myeloid leukemia
PARP
  PARP cleavage / apoptotic activation: PARP-mediated apoptotic activation; also recorded: cleaved PARP associated with apoptotic activation
Primary T-PLL cells [1]
  leukemia cell proliferation: significant and specific reduction in leukemia cell proliferation; also recorded: reduced proliferation
pSTAT5B
  pSTAT5B (pSTAT5) levels: dose- and time-dependent reduction in pSTAT5B levels; also recorded: diminished pSTAT5 levels
Primary T-PLL cells [2]
  cell viability: significant and specific reduction; also recorded: decreased viability
